# For at least one compound, name, drawing or mass did not settle the structure. Ends that are not written are not given here.
# Target: T1, ETBR (endothelin-bombesin receptor) expressed in Xenopus oocytes (Homo sapiens, UniProt O15354)
# T1 construct: expressed in transfected cells; host or cells: Xenopus oocytes microinjected with in vitro transcribed RNA
# T1 sequence (O15354 27-613): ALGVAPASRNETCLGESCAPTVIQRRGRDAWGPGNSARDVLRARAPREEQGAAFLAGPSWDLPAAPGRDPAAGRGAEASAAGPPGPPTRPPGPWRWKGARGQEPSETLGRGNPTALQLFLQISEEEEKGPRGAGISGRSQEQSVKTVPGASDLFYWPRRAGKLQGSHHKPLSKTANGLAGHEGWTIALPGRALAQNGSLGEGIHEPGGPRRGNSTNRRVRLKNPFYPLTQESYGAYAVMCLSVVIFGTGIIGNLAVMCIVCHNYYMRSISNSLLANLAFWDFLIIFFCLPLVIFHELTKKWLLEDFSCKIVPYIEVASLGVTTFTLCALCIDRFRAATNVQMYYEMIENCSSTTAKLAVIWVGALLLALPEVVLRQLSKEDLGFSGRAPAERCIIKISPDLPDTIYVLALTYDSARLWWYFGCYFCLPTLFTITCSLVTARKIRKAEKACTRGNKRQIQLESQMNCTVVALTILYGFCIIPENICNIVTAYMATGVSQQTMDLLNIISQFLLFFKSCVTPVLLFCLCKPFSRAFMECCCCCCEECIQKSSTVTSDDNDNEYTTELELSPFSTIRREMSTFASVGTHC
# Experiment: Xenopus oocyte assay to identify ligand (voltage-clamp, calcium activated chloride channel activity)
# Format: cell-based
# Conditions: 10 nM ligand; oocytes injected with RNA from ATCC #75823, clamped at -60 mV
# Method: Arrow indicates ET1 addition. […] The mean peak ± S.E. peak current response to ET1 is 150±50 (n=75), ET2 156±55 (n=75) and Bombesin 148±47 (n=75).
# RNA was synthesized in vitro from linearized DNA, ATCC #75823, using an RNA transcription kit. This RNA was microinjected into Xenopus oocytes (10 ng of RNA/occytes). The oocytes were manually defolliculated prior to microinjection to remove any endogenous receptors that might be present in the follicular membranes. The injected oocytes were maintained in modified Barth's medium at 18° C. for 48 hours to allow for receptor protein expression. Electrophysiology was performed using the voltage-clamp technique. Oocytes were clamped at −60 mV and the calcium activated chloride channel activity was recorded in Barth's medium at room temperature. Data were analyzed using Axotape software.
# The ET1 and ET3 mediated response was blocked by the ET receptor peptide antagonist BQ123. […] Since it responds to both ET and Bombesin it represents a novel endothelin-bombesin receptor.
sequence,measurement,value
RPPGFSPFR [Bradykinin],Cl- current response upon addition of ligand,did not illicit any response
